The results in this text go back to patent publication US20260183402A1, “NUTRITIONAL COMPOSITION” (priority 2010, published 2026).

This series is described as follows: Taste/bitterness of ketone bodies. As to conditions: human taste, in words.
Turning to `CC(O)CC(=O)OCC(COC(=O)CC(C)O)OC(=O)CC(C)O` (stereo not drawn), the taste result is listed as “bitterness”.

As for `CCOC(=O)CC(C)O` (stereo not drawn) [ethanol ester of beta-hydroxybutyrate], the taste result was “low bitter or tasteless”.

In the case of butandiol triolide diester, the taste result is “bitter taste”.
